Results are given in words; binding and its absence hold for the method and conditions named. Where a sequence is shown, tags or fusion partners need not be part of it.

Chains of the proteins cited; added tags and fusions are not shown.
UniProt P0A7G6: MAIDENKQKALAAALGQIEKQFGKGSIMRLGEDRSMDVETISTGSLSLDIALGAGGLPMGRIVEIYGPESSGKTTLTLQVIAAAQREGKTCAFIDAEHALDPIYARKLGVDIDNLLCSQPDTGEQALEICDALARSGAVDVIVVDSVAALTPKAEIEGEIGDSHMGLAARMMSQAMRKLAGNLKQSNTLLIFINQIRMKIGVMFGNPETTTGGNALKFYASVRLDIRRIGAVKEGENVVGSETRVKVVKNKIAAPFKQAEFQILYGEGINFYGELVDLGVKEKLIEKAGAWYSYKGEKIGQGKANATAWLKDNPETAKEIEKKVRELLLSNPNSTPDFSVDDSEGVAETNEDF

For this assay, the target named is T1, (His)6-MBP-tagged mouse MCPH1 (Microcephalin 1) (mouse) (UniProt Q7TT79).
T1 sequence: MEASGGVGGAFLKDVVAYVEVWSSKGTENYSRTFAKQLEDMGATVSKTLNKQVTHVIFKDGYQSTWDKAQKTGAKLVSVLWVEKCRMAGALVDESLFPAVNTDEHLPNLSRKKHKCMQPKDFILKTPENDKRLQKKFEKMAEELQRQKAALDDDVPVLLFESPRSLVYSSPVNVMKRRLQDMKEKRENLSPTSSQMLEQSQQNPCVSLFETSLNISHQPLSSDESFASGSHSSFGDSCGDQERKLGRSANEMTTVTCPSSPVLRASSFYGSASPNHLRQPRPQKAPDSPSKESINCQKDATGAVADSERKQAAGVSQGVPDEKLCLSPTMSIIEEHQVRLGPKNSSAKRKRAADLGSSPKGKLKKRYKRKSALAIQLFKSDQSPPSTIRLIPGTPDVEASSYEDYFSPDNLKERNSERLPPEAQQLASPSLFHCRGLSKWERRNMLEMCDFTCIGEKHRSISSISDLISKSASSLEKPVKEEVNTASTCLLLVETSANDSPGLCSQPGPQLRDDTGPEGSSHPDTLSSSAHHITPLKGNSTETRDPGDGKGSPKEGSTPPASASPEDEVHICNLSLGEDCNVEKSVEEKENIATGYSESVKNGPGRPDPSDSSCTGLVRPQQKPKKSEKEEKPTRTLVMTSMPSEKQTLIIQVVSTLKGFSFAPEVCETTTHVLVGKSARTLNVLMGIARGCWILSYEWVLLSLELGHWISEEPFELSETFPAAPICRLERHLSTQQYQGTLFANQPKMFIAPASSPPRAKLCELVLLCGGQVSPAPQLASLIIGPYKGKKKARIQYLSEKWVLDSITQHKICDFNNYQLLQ
Nature of the assay: condition: 1 μg RecA with 4 μg (His)6-MBP-MCPH1 in 30 μl; pull-down; (His)6-MBP-MCPH1 (4 μg) incubated with recombinase (1 μg) in 30 μl buffer D (25 mM Tris-HCl pH 7.5, 10% glycerol, 0.01% Igepal, 100 mM KCl, 10 mM imidazole) 30 min at 37°C with Benzonase and 2 mM MgCl2; captured on Talon resin via the (His)6 tag; SDS-PAGE with Coomassie Blue staining; both purified.

Regarding “Escherichia coli RecA protein (from UniProt P0A7G6 1-353)”, the binding entry was “no binding”.

Source of the values: article PMC7498314, “Microcephaly family protein MCPH1 stabilizes RAD51 filaments” (Nucleic Acids Research, 2020).
